From article PMC7472727, “Novel Escherichia coli RNA Polymerase Binding Protein Encoded by Bacteriophage T5” come the findings set out here.

For at least one entry, the source does not settle the construct or the ends of the probe. For some assays here: At least one verdict was read from the data and is not stated in words by the source.

The test system of series [1] is RNAP holoenzyme with [211Cys-TMR] sigma70 (RNAP beacon) + gpT5.026 S211C. Put plainly: fluorescence RNAP beacon titration. The following applies: 100 nM gpT5.026 preincubated 15 min; 40 mM Tris-HCl pH 8.0, 100 mM NaCl, 5% glycerol, 1 mM DTT, 10 mM MgCl2, 0.02% Tween 20, 25 C; 1 nM labeled RNAP holoenzyme; recombinant protein; single-stranded DNA.
Series [2] has as its system RNAP holoenzyme with [211Cys-TMR] sigma70 (RNAP beacon) S211C (Escherichia coli). Put plainly: fluorescence RNAP beacon titration. The following applies: no gpT5.026; 40 mM Tris-HCl pH 8.0, 100 mM NaCl, 5% glycerol, 1 mM DTT, 10 mM MgCl2, 0.02% Tween 20, 25 C; 1 nM labeled RNAP holoenzyme; recombinant protein; protein details: 5-TMR label at sigma70 position 211; single-stranded DNA.

Regarding TATAATAGATTCAT [-12/+2 oligonucleotide], in series [1], the binding signal (fold lower binding than without gpT5.026) stood at 8. Moreover, the binding result in series [2] is on record as “binds”.
